The target of experiment [1] is T1, Flag-tagged Calhm6 (293T) (UniProt Q8C9E8).
T1 sequence: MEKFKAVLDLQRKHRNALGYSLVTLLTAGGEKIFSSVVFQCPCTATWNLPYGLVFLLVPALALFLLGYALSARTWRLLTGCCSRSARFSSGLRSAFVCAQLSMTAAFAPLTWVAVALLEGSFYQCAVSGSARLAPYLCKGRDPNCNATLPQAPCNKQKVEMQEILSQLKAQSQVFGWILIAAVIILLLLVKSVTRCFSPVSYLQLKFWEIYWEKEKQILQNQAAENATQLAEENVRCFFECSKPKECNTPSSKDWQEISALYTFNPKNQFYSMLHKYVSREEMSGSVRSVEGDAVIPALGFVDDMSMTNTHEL
The experiment can be described thus: co-IP; Figure S7D-F, cited beside Figure 7K,L; format not shown.

Experiment [2] has as its target T1, Flag-tagged Calhm6 (293T). Description: co-IP; 293T lysates, combinations of HA-Chp1, Myc-CaMK4 and Flag-Calhm6; anti-Flag IP, blot with anti-HA, anti-Myc, anti-Flag (Figure 7A, 7D).
The target of experiment [3] is T2, HA-tagged Calhm6 (UniProt Q8C9E8).
T2 sequence: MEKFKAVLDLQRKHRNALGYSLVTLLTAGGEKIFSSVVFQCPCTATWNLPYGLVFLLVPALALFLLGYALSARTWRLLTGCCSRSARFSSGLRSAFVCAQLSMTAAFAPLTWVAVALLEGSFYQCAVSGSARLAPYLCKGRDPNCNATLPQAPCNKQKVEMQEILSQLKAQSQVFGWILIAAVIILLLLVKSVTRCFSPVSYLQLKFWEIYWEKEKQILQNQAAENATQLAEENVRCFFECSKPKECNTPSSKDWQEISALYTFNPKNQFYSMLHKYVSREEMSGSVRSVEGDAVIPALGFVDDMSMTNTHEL
Description: co-IP; 293T lysates, Myc-CaMK4, HA-Calhm6 and Flag-tagged wild-type Chp1 or Chp1 (S99A); anti-HA IP, blot with anti-HA, anti-Myc, anti-Flag (Figure 7F).

Experiment [4] has as its target T3, Flag-tagged wild-type Chp1 (UniProt P61022).
T3 sequence: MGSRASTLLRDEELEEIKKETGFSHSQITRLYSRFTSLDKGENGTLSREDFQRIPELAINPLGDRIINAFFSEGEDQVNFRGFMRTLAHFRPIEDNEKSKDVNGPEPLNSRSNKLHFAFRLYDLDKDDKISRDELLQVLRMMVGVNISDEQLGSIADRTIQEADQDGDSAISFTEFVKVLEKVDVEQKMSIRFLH
The experiment can be described thus: co-IP; 293T lysates, Flag-tagged wild-type Chp1 or Chp1 (S99A) with HA-CaMK4; anti-Flag IP, blot with anti-HA and anti-Flag (Figure 6M).

Experiment [5] has as its target T4, GFP-tagged Calhm6 fragment, EF-Hand/S4 domain (residues 129-203) (UniProt Q8C9E8).
T4 sequence: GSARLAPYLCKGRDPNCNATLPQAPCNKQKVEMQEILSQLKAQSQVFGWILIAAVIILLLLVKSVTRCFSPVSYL
Description: co-IP; 293T lysates, Flag-CaMK4 or Flag-Chp1 with fragments of GFP-tagged Calhm6; anti-GFP IP, blot with tag antibodies (Figure 7K, 7L).

In experiment [6] the target is T5, Flag-tagged CaMK4 (UniProt P08414).
T5 sequence: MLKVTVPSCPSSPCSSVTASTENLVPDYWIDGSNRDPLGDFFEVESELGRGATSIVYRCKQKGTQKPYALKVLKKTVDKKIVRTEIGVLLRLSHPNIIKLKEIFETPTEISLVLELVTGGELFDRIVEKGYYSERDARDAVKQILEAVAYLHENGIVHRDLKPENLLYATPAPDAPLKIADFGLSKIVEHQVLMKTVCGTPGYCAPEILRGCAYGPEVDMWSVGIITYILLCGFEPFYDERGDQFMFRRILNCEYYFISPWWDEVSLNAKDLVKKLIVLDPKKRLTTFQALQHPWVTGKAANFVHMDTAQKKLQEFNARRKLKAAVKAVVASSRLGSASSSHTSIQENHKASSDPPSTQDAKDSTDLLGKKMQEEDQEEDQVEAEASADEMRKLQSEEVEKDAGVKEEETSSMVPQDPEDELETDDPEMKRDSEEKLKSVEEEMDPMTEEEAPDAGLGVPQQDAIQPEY
Description: co-IP; 293T cells expressing Flag-CaMK4 and Myc-Chp1, treated with PBS, CaCl2, BAPTA-AM or Ca2+-free DMEM for 3 h; anti-Flag immunoprecipitates probed with tag antibodies (Figure 6I).

No constants are given. Whether binding was seen depends on the method and setting. Binding seen in cells or lysates may run through a third protein. Some results given as binding are weak or reduced against the parent protein; the word gives no strength. Where a sequence is shown, tags or fusion partners need not be part of it.

B1: kinase domain of CaMK4 (residues 1-296) (domain or fragment, UniProt P08414 1-296)
chain: MLKVTVPSCPSSPCSSVTASTENLVPDYWIDGSNRDPLGDFFEVESELGRGATSIVYRCKQKGTQKPYALKVLKKTVDKKIVRTEIGVLLRLSHPNIIKLKEIFETPTEISLVLELVTGGELFDRIVEKGYYSERDARDAVKQILEAVAYLHENGIVHRDLKPENLLYATPAPDAPLKIADFGLSKIVEHQVLMKTVCGTPGYCAPEILRGCAYGPEVDMWSVGIITYILLCGFEPFYDERGDQFMFRRILNCEYYFISPWWDEVSLNAKDLVKKLIVLDPKKRLTTFQALQHPWV
As for B1, the binding result in experiment [1] is listed as “binds”.

B2: Myc-tagged CaMK4 (protein, UniProt P08414 1-469)
chain: MLKVTVPSCPSSPCSSVTASTENLVPDYWIDGSNRDPLGDFFEVESELGRGATSIVYRCKQKGTQKPYALKVLKKTVDKKIVRTEIGVLLRLSHPNIIKLKEIFETPTEISLVLELVTGGELFDRIVEKGYYSERDARDAVKQILEAVAYLHENGIVHRDLKPENLLYATPAPDAPLKIADFGLSKIVEHQVLMKTVCGTPGYCAPEILRGCAYGPEVDMWSVGIITYILLCGFEPFYDERGDQFMFRRILNCEYYFISPWWDEVSLNAKDLVKKLIVLDPKKRLTTFQALQHPWVTGKAANFVHMDTAQKKLQEFNARRKLKAAVKAVVASSRLGSASSSHTSIQENHKASSDPPSTQDAKDSTDLLGKKMQEEDQEEDQVEAEASADEMRKLQSEEVEKDAGVKEEETSSMVPQDPEDELETDDPEMKRDSEEKLKSVEEEMDPMTEEEAPDAGLGVPQQDAIQPEY
For the molecule B2, the binding result in experiment [2] and in experiment [3] was “binds” throughout.

B3: HA-tagged CaMK4 (protein, UniProt P08414 1-469)
chain: MLKVTVPSCPSSPCSSVTASTENLVPDYWIDGSNRDPLGDFFEVESELGRGATSIVYRCKQKGTQKPYALKVLKKTVDKKIVRTEIGVLLRLSHPNIIKLKEIFETPTEISLVLELVTGGELFDRIVEKGYYSERDARDAVKQILEAVAYLHENGIVHRDLKPENLLYATPAPDAPLKIADFGLSKIVEHQVLMKTVCGTPGYCAPEILRGCAYGPEVDMWSVGIITYILLCGFEPFYDERGDQFMFRRILNCEYYFISPWWDEVSLNAKDLVKKLIVLDPKKRLTTFQALQHPWVTGKAANFVHMDTAQKKLQEFNARRKLKAAVKAVVASSRLGSASSSHTSIQENHKASSDPPSTQDAKDSTDLLGKKMQEEDQEEDQVEAEASADEMRKLQSEEVEKDAGVKEEETSSMVPQDPEDELETDDPEMKRDSEEKLKSVEEEMDPMTEEEAPDAGLGVPQQDAIQPEY
With B3, the binding entry in experiment [4] is recorded as “binds”.

B4: Flag-tagged wild-type Chp1 (protein, UniProt P61022 1-195)
chain: MGSRASTLLRDEELEEIKKETGFSHSQITRLYSRFTSLDKGENGTLSREDFQRIPELAINPLGDRIINAFFSEGEDQVNFRGFMRTLAHFRPIEDNEKSKDVNGPEPLNSRSNKLHFAFRLYDLDKDDKISRDELLQVLRMMVGVNISDEQLGSIADRTIQEADQDGDSAISFTEFVKVLEKVDVEQKMSIRFLH
B4: the binding entry in experiment [5] and in experiment [3] was “binds” throughout.

B5: Myc-tagged Chp1 (protein, UniProt P61022 1-195)
chain: MGSRASTLLRDEELEEIKKETGFSHSQITRLYSRFTSLDKGENGTLSREDFQRIPELAINPLGDRIINAFFSEGEDQVNFRGFMRTLAHFRPIEDNEKSKDVNGPEPLNSRSNKLHFAFRLYDLDKDDKISRDELLQVLRMMVGVNISDEQLGSIADRTIQEADQDGDSAISFTEFVKVLEKVDVEQKMSIRFLH
As for B5, in experiment [6], the binding entry is given as “binds”.

(Values after article PMC12766987.)
